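Whole-cell assay for inhibitors of Mycobacterium tuberculosis growth, labelled Cornell in the record; the read-out is not stated. The concentration is filed as 10 mM, unlikely as a test dose, so the dose is not known. Higher means stronger inhibition (inferred from two other growth screens of the library). About 53,000 compounds were tested under these conditions; 1.7% (about 900) showed 50% or more at least once.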

The filed quantity is “Percent Effect” (%).
The record does not define 0% and 100%; most values in the screen are far below 50% and negative numbers occur (in some assays of this library far below -100).
The compounds are a random part of those screened.

OCC(CO)N1CCC(c2nccnc2Nc2cnccn2)CC1 gave -4.177%. COCCC1COC2(CCN(C(C)=O)CC2)C1 (stereo not shown) gave -34.36%. Cc1nn(-c2ccccc2)cc1C(=O)N1CCCC(n2ccnc2)C1 (stereo not shown) gave -22.65%. CC(NC(=O)CCN1CCOC1=O)(c1ccccc1)c1ccccc1 read -4.451%. Cn1nnc2c(N3CC(C(=O)NCc4cccs4)C3)ncnc21 read -2.006%. [H][C@@]12COC[C@]1(c1nnc(C3CC3)o1)CN(C(=O)c1ncccn1)C2 gave 5.056%.

Cc1c(Br)cnn1CCC(=O)N(C)Cc1c(Cl)cnn1C read 37.43%. CCN(CC(=O)NCc1nc(C2CC2)no1)Cc1ccc(Cl)cc1 read 25.59%. N#Cc1c(N2CCCCC2)nsc1-c1cccnc1 gave -22.2%. Result for Cc1cccnc1CN(C)C(C(=O)O)c1ccc(-c2ccn[nH]2)cc1 (stereo not shown) was 83.57%. Result for O=C(O)C1(Cc2cc(-c3ccc(F)cc3F)no2)CCOCC1 was 2.463%. With CC(C)N1CCCCC1c1cncc(Cl)n1 (stereo not shown) the screen gave -32.47%.

With CN(C)C(=O)c1cccc(NC(=O)Cc2cc(F)ccc2F)n1 the screen gave 22.48%. COc1ncccc1NC(=O)N1CCCC(CNC(=O)OC(C)(C)C)C1 (stereo not shown) gave -6.462%. Cc1cc(C(=O)N2CCN(C)CC2)nn1CC(=O)NCc1cccs1.Cl read 41.67%. Cc1cc(C)n(C2CCCN(C(=O)COCC(F)(F)F)C2)n1 (stereo not shown) gave -21.4%. With O=C(Nc1ccc(-n2cccn2)cc1)N1CCC(O)C1 (stereo not shown) the screen gave -6.318%. With CCCC1(CO)CCCN(C(=O)CNC(C)=O)C1 (stereo not shown) the screen gave 2.159%.

Result for [H][C@@]12C[C@H](C(=O)N3CCCC3)[C@@]([H])(CN(C(=O)NCC3CCCCC3)C1)O2 was 23.87%. CCC(C)NC(=O)Cn1ncc2c1c(C)nn2CC (stereo not shown) read -27.69%. CC(=O)N1CCC2(CC1)COCCN2CCN(C)C.O=C(O)C(F)(F)F.O=C(O)C(F)(F)F gave 30.65%. CCN1C(=O)CCC12CCCN(CCc1ccccc1)C2 (stereo not shown) read -44.62%. CCOc1c(Br)cc(C2C3=C(COC3=O)Nc3[nH]nc(C)c32)cc1OC (stereo not shown) read 33.99%. For CC(C)CN1CCC(NC(=O)c2ccc(F)cc2I)CC1 the result was -14.04%.

For Cc1ccc(-c2nc(C(=O)NCC3CCOC3)cs2)cc1 (stereo not shown) the result was -1.373%. For Cc1nc(C)c(C)c(N2CCC3(CCN(C)C3)C2)n1 (stereo not shown) the result was 10.76%. Cc1n[nH]c2c1C(c1ccsc1)SCC(=O)N2 (stereo not shown) gave -3.781%. For CN(C)[C@H]1CN(C(=O)CCc2cccc(F)c2)C[C@@H]1C1CC1 the result was 16.28%. Result for O=C(O)C(F)(F)F.[H][C@@]12CCN(c3cnccn3)C[C@]1([H])CN(C(=O)c1ccn(C)n1)C2 was -27.31%. For N#Cc1ccc(OCCCN2CCOC(Cn3cncn3)C2)cc1 (stereo not shown) the result was -19.98%.

Result for Cc1cc(C)cc(OCCN(C)Cc2cscn2)c1 was 4.868%. COCC(=O)N1CCCC2(CCN(CCN3CCCC3)CC2)C1.O=C(O)C(F)(F)F.O=C(O)C(F)(F)F gave -16.45%. Cc1ccc(CC(=O)N2CCc3nnc(N(C)C)cc3C2)cn1 read -43.97%. O=C(COCC(F)(F)F)Nc1nncs1 read -17.8%. CCN(Cc1cccnc1)CC1CCCO1 (stereo not shown) gave -6.5%. Result for O=C(O)C(F)(F)F.c1ccc(OC2COC3(CCN(Cc4ccccn4)CC3)C2)cc1 (stereo not shown) was 3.961%.

Result for Oc1nc(N2CCOCC2)nc2nccc(-c3ccccn3)c12 was 10.91%. With COC(=O)N1CCC(NC(=O)Cn2cc(C)c3ccccc32)CC1 the screen gave -31.87%. For FC(F)(F)CCc1ccnc(N2CCN(Cc3ccccn3)CC2)n1 the result was 6.928%. Cn1nnc2c1CCN(S(C)(=O)=O)C2COCC1CC1 (stereo not shown) read 12.07%. For CSc1ccc(CNC(=O)Cc2c(C)n[nH]c2C)cc1 the result was 13.58%.

Some entries from above, unchanged:

- CC(=O)N1CCC2(CC1)COCCN2CCN(C)C.O=C(O)C(F)(F)F.O=C(O)C(F)(F)F | 30.65%
- Cc1ccc(CC(=O)N2CCc3nnc(N(C)C)cc3C2)cn1 | -43.97%
- OCC(CO)N1CCC(c2nccnc2Nc2cnccn2)CC1 | -4.177%
- Cc1cccnc1CN(C)C(C(=O)O)c1ccc(-c2ccn[nH]2)cc1 (stereo not shown) | 83.57%
- O=C(O)C(F)(F)F.[H][C@@]12CCN(c3cnccn3)C[C@]1([H])CN(C(=O)c1ccn(C)n1)C2 | -27.31%

Source: ChEMBL document CHEMBL3988442, “University of Dundee, Small-Polar-MMV Screening Library” (2021).